PubChem BioAssay AID686938 – Drosophila RNAi Screening Center | 2013
The screen tested about 23,000 reagents; this is an unselected part of those that have a named target and a result. In the full data, 75 (0.33%) got an active call. 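Raw plate signals without normalisation; calls rest on plate z-scores that were not deposited; ratio present for only 364 wells.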 A number with no mark means an inactive call. Reagents against one gene are numbered here. Names joined by + are all predicted targets of the reagent. No sequences are given here. Not given: the dose of the treatment.

Test: 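Fly genes required for calcium entry once internal stores are emptied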 (primary screen)
Cells: Drosophila S2R+ cells
Knock-down reagent: long dsRNA against Drosophila genes, about 0.25 µg dsRNA per well, roughly 10,000 cells
Timing: 5 days of knock-down before the calcium assay
Challenge: thapsigargin (SERCA pump blocker) to empty calcium stores; entry signal taken 4 min after adding it
Detection: 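Duplicate raw fluo-4 intensities per well from a plate reader, at rest and four minutes after thapsigargin emptied calcium stores; entry-to-rest ratio filled for only some wells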
Reading the numbers: calcium entry signal: higher = stronger calcium signal after store depletion; resting calcium signal: higher = higher resting calcium signal
Active means: 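Hit if the duplicate-averaged plate z-score for entry over resting signal is under −3; wells with weak total dye signal (Fmax z < −2) or more than 5 off-targets removed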
Calls: active = strongly reduced calcium entry; inactive = no strong reduction

predicted target	dsRNA no.	calcium entry signal, replicate 1 (fluorescence units)	calcium entry signal, replicate 2 (fluorescence units)	resting calcium signal, replicate 1 (fluorescence units)	resting calcium signal, replicate 2 (fluorescence units)
clumsy	1	5.35e7	4.54e7	2.59e7	2.13e7
mRpL43	1	4.21e7	7.68e7	2.07e7	2.66e7
mRpL43	2	4.95e7	4.29e7	2.51e7	1.53e7
dgt2	1	2.28e7	1.57e7	1.20e7	8.80e6
Syt4	1	4.24e7	4.21e7	2.10e7	2.12e7
l(3)76BDm	1	2.64e7	3.48e7	1.20e7	2.54e7
CG33095	1	3.51e7	5.16e7	1.83e7	2.48e7
CG12929	1	4.79e7	4.51e7	2.27e7	1.55e7
CG12491 + CG34105	1	2.34e7	3.79e7	1.21e7	1.54e7
CG12491 + CG34105	2	3.75e7	5.01e7	2.03e7	2.38e7
sns	1	2.96e7	3.95e7	1.60e7	1.63e7
sns	2	3.11e7	4.33e7	1.58e7	1.69e7
sns	3	3.77e7	3.07e7	1.89e7	1.58e7
sns	4	3.41e7	2.96e7	1.60e7	1.45e7
sns	5	3.14e7	3.02e7	1.49e7	1.46e7
sns	6	3.08e7	3.49e7	1.37e7	1.50e7
MED14	1	2.80e7	2.26e7	1.62e7	1.55e7
CG13171	1	2.77e7	3.77e7	1.42e7	1.66e7
CG9592	1	3.66e7	3.67e7	1.63e7	1.46e7
CG31776	1	2.73e7	3.08e7	1.37e7	1.53e7
CG32450	1	5.17e7	4.12e7	2.38e7	1.89e7
CG32727	1	3.14e7	3.63e7	1.54e7	1.69e7
ppk18	1	3.35e7	4.89e7	1.77e7	2.14e7
ppk18	2	3.62e7	4.12e7	1.79e7	1.70e7
